The nature of the test: qHTS Assay to Find Inhibitors of Chronic Active B-Cell Receptor Signaling. The note with it: ABC-DLBCL IkBa-CBG/CBR reporter, luminescence ratio (green luciferase fused to IkBa over red control in TMD8 lymphoma cells), 4 h. In outline: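 Doxycycline induced both beetle luciferases in TMD8 lymphoma cells; IKK-driven degradation limits the IkappaBalpha-fused green signal, while red luminescence normalises for cell number and nonspecific effects. Compounds tested up to 46 uM, 4 hrs.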

The mark [1] stands for this setting: measured here: IkBa-CBG green luminescence.
Where [2] appears, read: measured here: CBR red luminescence, cell number.

This is one part of the list. These are further read-outs of the screen, such as a control signal, another cell line or another target. No call is given for them. The list favours compounds with an active or inconclusive main result. Words in brackets tell the shape of the fitted curve; partial curves, single points and poor fits give uncertain potencies.

With `Cc1ccc(NC(=O)CSc2nc(N)c3c4c(sc3n2)CSC(C)(C)C4)cc1`, the AC50 under setting [1] is 32.6 µM [rising, partial curve, poor fit].

`Cc1ccc2c(c1)C(c1ccc(O)cc1)(c1ccc(O)cc1)C(=O)N2C`: the AC50 under setting [2] was 35.5 µM [falling, single point].

`Cc1nonc1-c1ccc2c(c1)OCO2`: the AC50 under setting [2] was 31.6 µM [rising, single point].

Consider `COc1ccc(C(=O)NN/C(C)=C/C(=O)c2ccccc2)cc1`, for which the AC50 under setting [2] was 2.51 µM [falling, full curve].

`CC(C)N(C)Cc1nnnn1CC(=O)N(C)Cc1cccc(Cl)c1`: the AC50 under setting [2] is 15.8 µM [falling, single point].

Take `COc1ccccc1CCNCc1ccc(OC)c(OCc2ccccc2)c1`: the concentration at half-maximal activity (AC50) under setting [2] was 29.1 µM [falling, single point].

Turning to `CCc1nnc(NC(=O)CSc2nc(-c3ccc(OC)cc3)ns2)s1`, under setting [2], the concentration at half-maximal activity (AC50) was 20.6 µM [rising, single point].

In the case of `O=C(Nc1ccc(Br)cn1)c1ccc(Cl)s1`, the AC50 under setting [2] is 8.91 µM [falling, partial curve].

As for `O=c1c([N+](=O)[O-])c[nH]c2ccccc12`, the AC50 under setting [2] was 29.1 µM [falling, single point].

For the compound `N#Cc1c(NCc2ccccc2)ccnc1NCc1cccnc1`, under setting [2], the AC50 was 25.9 µM [falling, partial curve, poor fit].

Turning to `CCOC(=O)c1oc2cc(OCC(=O)OC)ccc2c(=O)c1-c1ccc(OC)c(OC)c1`, the AC50 under setting [2] is 20 µM [falling, single point].

Consider `CNc1nc(N)c([N+](=O)[O-])c(NCc2ccccc2)n1`, for which the AC50 is, setting by setting: under setting [2], 11.6 µM [rising, partial curve]; under setting [1], 18.4 µM [falling, partial curve, poor fit].

Take `C=CCOC(=O)C1=C[C@H](c2ccc(Br)cc2)[C@@H](CCCO)[C@H](OCC)O1`: the half-maximal activity concentration (AC50) under setting [2] was 0.631 µM [falling, full curve, poor fit].

In the case of `O=C(COc1ccc(Br)cc1Cl)Nn1cnnc1`, the AC50 under setting [2] is 10 µM [rising, single point].

In the case of `C/C(=N\Nc1nc2ccccc2[nH]1)c1ccc(Cl)s1`, under setting [2], the AC50 was 20.6 µM [falling, single point].

As for `O=c1c2ccccc2nc2n1CCCN2`, under setting [2], the AC50 is 1.78 µM [falling, full curve, poor fit].

`COc1cc(NS(=O)(=O)c2ccc(N/C=C(\C#N)c3nc4cc(Cl)ccc4o3)cc2)nc(OC)n1`: the AC50 under setting [2] was 2.91 µM [rising, full curve, poor fit].

Turning to `OCCCN=c1cc(-c2ccccc2)oc2ccc(Cl)cc12`, the AC50 reads like this: under setting [2], 29.1 µM [falling, single point]; under setting [1], 16.4 µM [rising, partial curve, poor fit].

On to `O=C(NCCCCCCOC1=NS(=O)(=O)c2ccccc21)C(=O)Nc1ccccc1`, for which the AC50 under setting [2] was 11.2 µM [falling, partial curve, poor fit].

For `O=C(Nc1nc2ccccc2[nH]1)c1ccccc1OC(F)F`, the AC50 under setting [2] is 5.01 µM [falling, full curve].

As for `CCN(CC)S(=O)(=O)c1ccc(Cl)c(C(=O)N2CCc3ccccc32)c1`, the AC50 under setting [2] was 0.00517 µM [rising, full curve, poor fit].

With `CC(CCc1ccccc1)NC(=O)CCCCCNc1nc(=S)[nH]c2ccccc12` (centres undefined), the AC50 under setting [2] was 3.16 µM [falling, full curve].

For the compound `CC1CCc2nn(CC(=O)Nc3ccc(F)cc3F)cc2C1` (centres undefined), under setting [2], the AC50 is 3.66 µM [rising, partial curve, poor fit].

Turning to `CC(=O)Nc1ccc(Nc2c3ccccc3nc3ccccc23)cc1`, under setting [2], the AC50 is 14.1 µM [falling, partial curve].

As for `Cc1cc(C)n2nc(-c3ccsc3-n3c(C)ccc3C)cc2n1`, the AC50 under setting [2] is 5.01 µM [rising, single point].

For `Cc1ccn(CCNC(=O)C2CCC(=O)N(CCc3ccc(Cl)cc3)C2)n1` (centres undefined), the AC50 under setting [2] was 12.6 µM [rising, single point].

Consider `COC1=C/C(=C/c2c(N)n3c(nc2=O)sc2cc(S(C)(=O)=O)ccc23)C=CC1=O`, for which the AC50 under setting [2] is 31.6 µM [falling, single point].

On to `COc1ccccc1N(CC(O)COc1c(C)cc(C)cc1C)S(=O)(=O)c1ccccc1` (centres undefined), for which the AC50 under setting [2] is 16.4 µM [falling, single point].

Turning to `Brc1ccc(-c2cn3c(n2)SCC3)cc1`, the AC50 under setting [2] was 1.58 µM [rising, partial curve, poor fit].

Turning to `C/C(=N\Nc1ccc(C(F)(F)F)cn1)c1ccncc1`, the AC50 under setting [2] is 2.82 µM [rising, full curve, poor fit].

`O=C(NCCc1ccccc1)C(=O)Nc1nccs1`: under setting [2], the AC50 is 2.06 µM [falling, full curve].

Consider `Cc1cccc(N2C(=O)CN(Cc3sccc3C)C2=S)c1`, for which, under setting [2], the AC50 is 4.11 µM [falling, partial curve, poor fit].

`COC(=O)c1ccc(CO/N=C/c2ccccc2OC)cc1`: under setting [2], the half-maximal activity concentration (AC50) is 4.47 µM [falling, partial curve].

`CC(=O)NC(NC(=S)Nc1ccc(N=Nc2ccccc2)cc1)C(Cl)(Cl)Cl` (centres undefined): the AC50 under setting [2] was 7.94 µM [falling, partial curve].

Regarding `Cc1cccc(NC(=O)C23CCC(C)(C2Br)C3(C)C)c1` (centres undefined), the AC50 under setting [2] is 6.31 µM [falling, single point].

In the case of `CC(=O)Oc1ccc(C(=O)O)cc1OC(C)=O`, the half-maximal activity concentration (AC50) under setting [2] was 35.5 µM [rising, partial curve, poor fit].

With `COc1ccc(NC(=O)/C(C#N)=C/c2ccc(-c3ccc(Cl)c(C(=O)O)c3)o2)cc1`, under setting [2], the AC50 is 1.12 µM [falling, partial curve, poor fit].

For the compound `N#Cc1ccc2c(c1)C[C@]1(c3ccsc3)Oc3c(c(=O)oc4ccccc34)C2O1`, the AC50 under setting [2] was 3.98 µM [falling, single point].

Consider `COc1cc(C(=O)NCc2ccc(C)cc2)ccc1OC(F)F`, for which the AC50 under setting [2] is 2.91 µM [rising, partial curve, poor fit].

`CCCOC1CCCN(C(=O)c2ccc(OC3CCN(C(=O)CCOC)CC3)cc2)C1` (centres undefined): the AC50 under setting [2] is 35.5 µM [rising, single point].

As for `CCN(C(=O)Cc1c(C(=O)O)n(CC)c2ccccc12)c1ccccc1C`, the AC50 under setting [2] is 1.58 µM [falling, partial curve].

With `CC(C)C1Cc2c(C#N)c(N)n(C)c(=S)c2CO1` (centres undefined), the AC50 under setting [2] was 10 µM [rising, partial curve].

For the origin of these results see PubChem BioAssay AID493014 (National Center for Advancing Translational Sciences (NCATS), 2011).
